This test deals with transforming growth factor beta (human (endogenous in gastric tissue)). Briefly: co-IP; whole tissue lysates (3 pairs of gastric tumor and adjacent normal tissue, RIPA buffer) incubated with anti-TGF-β1 antibody and agarose-protein A/G beads at 4°C overnight; washed with lysis buffer; immunoblotted with anti-DCN and anti-ASPN.

Results are given in words; binding and its absence hold for the method and conditions named. In cells and extracts the contact can be indirect. A result given as binding can be weak or reduced; the word gives no strength.

B1: asporin (protein, UniProt Q9BXN1 33-380)
chain: DMEDTDDDDDDDDDDDDDDEDNSLFPTREPRSHFFPFDLFPMCPFGCQCYSRVVHCSDLGLTSVPTNIPFDTRMLDLQNNKIKEIKENDFKGLTSLYGLILNNNKLTKIHPKAFLTTKKLRRLYLSHNQLSEIPLNLPKSLAELRIHENKVKKIQKDTFKGMNALHVLEMSANPLDNNGIEPGAFEGVTVFHIRIAEAKLTSVPKGLPPTLLELHLDYNKISTVELEDFKRYKELQRLGLGNNKITDIENGSLANIPRVREIHLENNKLKKIPSGLPELKYLQIIFLHSNSIARVGVNDFCPTVPKMKKSLYSAISLFNNPVKYWEMQPATFRCVLSRMSVQLGNFGM
For B1, the binding entry is on record as “binds”.

These data come from paper PMC8357146.
